Measurements reported in patent publication US20250388690A1.
Results are given in words; binding and its absence hold for the method and conditions named. Binding can be weak; no strength is given.

Protein sequences, listed by entry. Tags and fused reporters are not part of them. Lines headed by an entry give the natural chain unless they say otherwise; changes in a name come on top.
UniProt P20333: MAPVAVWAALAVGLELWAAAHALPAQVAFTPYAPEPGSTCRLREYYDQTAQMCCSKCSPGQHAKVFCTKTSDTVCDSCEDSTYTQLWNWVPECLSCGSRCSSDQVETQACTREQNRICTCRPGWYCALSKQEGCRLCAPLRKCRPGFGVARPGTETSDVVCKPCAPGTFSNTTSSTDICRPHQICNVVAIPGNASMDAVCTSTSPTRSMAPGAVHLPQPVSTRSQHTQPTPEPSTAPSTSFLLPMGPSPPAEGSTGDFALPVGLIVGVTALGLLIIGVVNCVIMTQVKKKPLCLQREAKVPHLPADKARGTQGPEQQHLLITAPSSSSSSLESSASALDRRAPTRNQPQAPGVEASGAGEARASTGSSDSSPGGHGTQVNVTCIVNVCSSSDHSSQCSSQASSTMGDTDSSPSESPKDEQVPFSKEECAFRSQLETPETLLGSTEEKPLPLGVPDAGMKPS

Experiments:
hTNFR2-Δ1 (human) [1] = biological target: hTNFR2-Δ1 (human) (UniProt P20333); test: flow cytometry on transfected HEK293 cells, MFI
hTNFR2-Δ2 (human) [2] = test: flow cytometry on transfected HEK293 cells, MFI
hTNFR2-Δ4 (human) = hTNFR2-Δ4 (human) (UniProt P20333); test: flow cytometry on transfected HEK293 cells, MFI
hTNFR2-Δ1 (human) [3] = biological target: hTNFR2-Δ1 (human) (UniProt P20333); test: flow cytometry, transfected HEK293 cells
hTNFR2-Δ2 (human) [4] = test: flow cytometry, transfected HEK293 cells
hTNFR2-Δ1 (human) [5] = biological target: hTNFR2-Δ1 (human) (UniProt P20333); test: flow cytometry, transfected HEK cells
hTNFR2-Δ2 (human) [6] = test: flow cytometry, transfected HEK cells
hTNFR2-Δ1 + 3 (human) [7] = biological target: hTNFR2-Δ1 + 3 (human) (UniProt P20333); test: flow cytometry on transfected HEK293 cells, MFI
hTNFR2-Δ1 + 3 (human) [8] = biological target: hTNFR2-Δ1 + 3 (human) (UniProt P20333); test: flow cytometry, transfected HEK cells
hTNFR2-Δ2 + 4 (human) [9] = biological target: hTNFR2-Δ2 + 4 (human) (UniProt P20333); test: flow cytometry on transfected HEK293 cells, MFI
hTNFR2-Δ2 + 4 (human) [10] = biological target: hTNFR2-Δ2 + 4 (human) (UniProt P20333); test: flow cytometry, transfected HEK cells

Measured: binding

B1: 001-F02 (antibody, V domains shown)
VH: EVQLLESGGGLVQPGGSLRLSCAASGFTFSDYYMSWVRQAPGKGLEWVANINTDGSEKYYLDSVKGRFTISRDNSKNTLYLQMNSLRAEDTAVYYCAREEYGAFDIWGQGTLVTVSS
VL: QSVLTQPPSASGTPGQRVTISCSGSSSNIGSNTVNWYQQLPGTAPKLLIYDNNKRPSGVPDRFSGSKSGTSASLAISGLRSEDEADYYCQSFDRGLSGSIVFGGGTKLTVLG
not listed: hTNFR2-Δ1 + 3 (human) [7] | hTNFR2-Δ1 + 3 (human) [8] | hTNFR2-Δ2 + 4 (human) [9] | hTNFR2-Δ2 + 4 (human) [10]
binds: all other assays above

B2: 001-F06 (antibody, V domains shown)
VH: EVQLLESGGGLVQPGGSLRLSCAASGFTFSSYAMHWVRQAPGKGLEWVSAISGGATTTYYADSVKGRFTISRDNSKNTLYLQMNSLRAEDTAVYYCAKGGTGDPYYFDYWGQGTLVTVSS
VL: QSVLTQPPSASGTPGQRVTISCTGSSSNIGAGYDVHWYQQLPGTAPKLLIYRNNQRPSGVPDRFSGSKSGTSASLAISGLRSEDEADYYCAARDDGLSGPVFGGGTKLTVLG
not listed: hTNFR2-Δ4 (human) | hTNFR2-Δ2 + 4 (human) [9] | hTNFR2-Δ2 + 4 (human) [10]
binds: all other assays above

B3: 001-G10 (antibody, V domains shown)
VH: EVQLLESGGGLVQPGGSLRLSCAASGFTFSAYGMHWVRQAPGKGLEWVAVVSYDGREKHYADSVKGRFTISRDNSKNTLYLQMNSLRAEDTAVYYCARSDGGYDSDSGYYWGQGTLVTVSS
VL: QSVLTQPPSASGTPGQRVTISCSGSTSNIGSNFVYWYQQLPGTAPKLLIYDNNKRPSGVPDRFSGSKSGTSASLAISGLRSEDEADYYCSSYAYSDNILFGGGTKLTVLG
binds: hTNFR2-Δ1 (human) [1] | hTNFR2-Δ2 (human) [2]

B4: 001-H10 (antibody, V domains shown)
VH: EVQLLESGGGLVQPGGSLRLSCAASGFTFDDYGMSWVRQAPGKGLEWVSVIYSGGSTYYADSVKGRFTISRDNSKNTLYLQMNSLRAEDTAVYYCARDRSSSWYRDGMDVWGQGTLVTVSS
VL: QSVLTQPPSASGTPGQRVTISCTGSSSNIGAGYDVHWYQQLPGTAPKLLIYGNSNRPSGVPDRFSGSKSGTSASLAISGLRSEDEADYYCAAWDDSLSGWVFGGGTKLTVLG
not listed: hTNFR2-Δ1 + 3 (human) [7] | hTNFR2-Δ1 + 3 (human) [8]
binds: all other assays above

B5: 004-E08 (antibody, V domains shown)
VH: EVQLLESGGGLVQPGGSLRLSCAASGFTFSRYWMHWVRQVPGKGLEWVSGISDSGVVTYYADSVKGRFTISRDNSKNTLYLQMNSLRAEDTAVYYCARAQSVAFDIWGQGTLVTVSS
VL: QSVLTQPPSASGTPGQRVTISCSGSSSNIGAGHDVHWYQQLPGTAPKLLIYYDDLLPSGVPDRFSGSKSGTSASLAISGLRSEDEADYYCAAWDDSLSGWVFGGGTKLTVLG
binds: hTNFR2-Δ1 (human) [1] | hTNFR2-Δ2 (human) [2] | hTNFR2-Δ1 (human) [3] | hTNFR2-Δ2 (human) [4] | hTNFR2-Δ1 (human) [5] | hTNFR2-Δ2 (human) [6]
